Structures can show the parent of a compound that is named as a salt. Among all 2,100 compounds or so, about 180 (8.6%) showed an effect of 50% or more. The list shows a part of the results.
The molecules below were run on MOLM1 and UCSD/AML1 (averaged) (assay: cell viability relative to DMSO control (POC); higher = less growth inhibition). Conditions: 1 µM; 72 h.
Description: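 Primary viability screen in the 3q26 EVI1-high AML cell lines MOLM1 and UCSD/AML1 (1.5e3 cells/well, 384-well), compounds at 1 uM for 72 h. ATP CellTiter-Glo read-out given as percent of viable cells over DMSO control (POC), averaged over duplicates. DMSO was the negative control and 5 uM etoposide the positive control. This mapping covers the MicroSource Spectrum and Selleck anticancer libraries (drug names).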

| Structure (SMILES) | cell viability [%] |
| --- | --- |
| C1CCN2C[C@@H]3C[C@@H](CN4CCCC[C@@H]34)[C@H]2C1 | 99.5 |
| CC1CC(OC(=O)C(O)c2ccccc2)CC(C)(C)N1C (stereo not drawn) | 113 |
| OC[C@H]1O[C@@H](n2cnc3c(NCc4ccco4)ncnc32)[C@H](O)[C@@H]1O | 5.88 |
| Cc1nnc(NS(=O)(=O)c2ccc(N)cc2)s1 | 103 |
| FC(F)c1nc2ccccc2n1-c1nc(N2CCOCC2)nc(N2CCOCC2)n1 | 26.8 |
| CCN1CCN(c2cc3c(cc2F)c(=O)c(C(=O)O)cn3C2CC2)CC1 | 98.3 |
| COc1cc(NS(C)(=O)=O)ccc1Nc1c2ccccc2nc2ccccc12 | 12.8 |
| C[C@H]1C[C@H]2[C@@H]3CCC4=CC(=O)C=C[C@]4(C)[C@@]3(F)[C@@H](O)C[C@]2(C)[C@@]1(O)C(=O)CO | 69.9 |
| CCN1CCN(C(=O)N[C@@H](C(=O)N[C@@H]2C(=O)N3C(C(=O)O)=C(CSc4nnnn4C)CS[C@H]23)c2ccc(O)cc2)C(=O)C1=O | 95.7 |
| CN(C)CCOc1ccc(/C(=C(/CCCl)c2ccccc2)c2ccccc2)cc1 [Toremifene Citrate (Fareston, Acapodene)] | 92.4 |
| CN(C)CCOc1ccc(/C(=C(/CCCl)c2ccccc2)c2ccccc2)cc1 | 85.8 |
| Cc1ccc(Cl)c(Nc2ccccc2C(=O)O)c1Cl | 103 |
| CO[C@@]12[C@H](COC(N)=O)C3=C(C(=O)C(C)=C(N)C3=O)N1C[C@@H]1N[C@@H]12 | 13 |
| CC(C(=O)O)c1ccc(N2Cc3ccccc3C2=O)cc1 (stereo not drawn) | 100 |
| O=c1c(-c2ccc(O)cc2)coc2c([C@@H]3O[C@H](CO)[C@@H](O)[C@H](O)[C@H]3O)c(O)ccc12 | 120 |
| O=C(O)C(S)C(S)C(=O)O (stereo not drawn) | 115 |
| CCn1nc(C(=O)O)c(=O)c2cc3c(cc21)OCO3 | 96 |
| Cc1cc(/C=C/c2ccc3cc(N(C)C)ccc3[n+]2C)c(C)n1-c1ccccc1 | 29.3 |
| CCOC(=O)CCCCCCCCCCCCC1C=CCC1 (stereo not drawn) | 103 |
| CC(C)=CCC/C(C)=C/CC/C(C)=C/CC/C(C)=C/CC/C(C)=C/CC/C(C)=C/CC/C(C)=C/CC/C(C)=C/CC/C(C)=C/CO | 83.6 |
| O=C(O[C@@H]1Cc2c(O)cc(O)cc2O[C@@H]1c1cc(O)c(=O)c2c(O)c(O)cc([C@H]3Oc4cc(O)cc(O)c4C[C@H]3O)c2c1)c1cc(O)c(O)c(O)c1 | 101 |
| COC(=O)CC[C@@H](C)[C@H]1CC[C@H]2[C@@H]3CC[C@@H]4C[C@H](O)CC[C@]4(C)[C@H]3C[C@H](O)[C@]12C | 97.4 |
| C[C@@H]1O[C@@H](O[C@H]2[C@H](O[C@H]3CC[C@@]4(C)[C@@H](CC[C@]5(C)[C@@H]4CC=C4[C@@H]6CC(C)(C)CC[C@]6(C(=O)O[C@@H]6O[C@H](CO[C@@H]7O[C@H](CO)[C@@H](O[C@@H]8O[C@@H](C)[C@H](O)[C@@H](O)[C@H]8O)[C@H](O)[C@H]7O)[C@@H](O)[C@H](O)[C@H]6O)CC[C@]45C)[C@]3(C)CO)OC[C@H](O)[C@@H]2O)[C@H](O)[C@H](O)[C@H]1O | 89.5 |

An excerpt of these results, with tabs:
Structure (SMILES)	cell viability [%]
CC1CC(OC(=O)C(O)c2ccccc2)CC(C)(C)N1C (stereo not drawn)	113
Cc1ccc(Cl)c(Nc2ccccc2C(=O)O)c1Cl	103
CC(C(=O)O)c1ccc(N2Cc3ccccc3C2=O)cc1 (stereo not drawn)	100
O=C(O)C(S)C(S)C(=O)O (stereo not drawn)	115
Cc1cc(/C=C/c2ccc3cc(N(C)C)ccc3[n+]2C)c(C)n1-c1ccccc1	29.3
CCOC(=O)CCCCCCCCCCCCC1C=CCC1 (stereo not drawn)	103
COC(=O)CC[C@@H](C)[C@H]1CC[C@H]2[C@@H]3CC[C@@H]4C[C@H](O)CC[C@]4(C)[C@H]3C[C@H](O)[C@]12C	97.4

Source: the supplement of paper PMC11150407
